In publication PMC6367419 (Nature Communications, 2019):
Results are given in words; binding and its absence hold for the method and conditions named. A result given as binding can be weak or reduced; the word gives no strength.

What follows are substances tested against T1, EscN^29–446 (EPEC type III secretion system ATPase EscN, residues 29–446) (enteropathogenic Escherichia coli (EPEC) O127:H6 E2348/69) (UniProt B7UMA6) (assay: co-sedimentation; both purified).
T1 sequence: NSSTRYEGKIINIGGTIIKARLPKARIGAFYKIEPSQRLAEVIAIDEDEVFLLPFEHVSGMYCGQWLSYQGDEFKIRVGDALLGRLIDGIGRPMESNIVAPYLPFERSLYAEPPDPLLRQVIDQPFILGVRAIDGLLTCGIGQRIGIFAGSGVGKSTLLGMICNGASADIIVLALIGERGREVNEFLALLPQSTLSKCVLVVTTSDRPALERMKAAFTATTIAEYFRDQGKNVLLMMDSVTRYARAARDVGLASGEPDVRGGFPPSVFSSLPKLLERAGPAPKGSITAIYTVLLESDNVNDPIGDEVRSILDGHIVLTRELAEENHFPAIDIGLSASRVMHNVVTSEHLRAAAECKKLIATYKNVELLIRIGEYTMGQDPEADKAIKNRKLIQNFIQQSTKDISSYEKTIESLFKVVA

Row | Substance | binding
1 | EscO^1–125 (full-length EPEC central stalk protein EscO) (from UniProt Q8VNS0) | binds
2 | EscO^1–125 Arg12Glu/Arg15Glu | binds
3 | EscO^1–125 Lys110Glu/Lys114Glu | no binding (tested: EscN at 2.0 mg/mL, and EscO at 0.7 mg/mL)
